From ChEMBL document CHEMBL1687827, “Profiling the Aspergillus fumigatus proteome in response to caspofungin” (2011)
This continues a long series; more values of the same kind are listed elsewhere.

Experiments:
Assay type in all cases: functional
Aspergillus fumigatus [1] = assay: Induction of change in Ribosomal protein L31e protein level in iTRAQ114 labelled cell wall fraction of drug-susceptible Aspergillus fumigatus KU80 delta-akuB at 0.12 ug/ml after 24 hrs in YPD medium by MS (MS/MS) analysis relative to control
Aspergillus fumigatus [2] = assay: Induction of change in cytosolic large ribosomal subunit protein L30 gene expression in drug-susceptible Aspergillus fumigatus KU80 delta-akuB at 0.12 ug/ml after 24 hrs in YPD medium by microarray analysis relative to control
Aspergillus fumigatus [3] = assay: Induction of change in conserved hypothetical gene locus AFUA_8G00970 expression in drug-susceptible Aspergillus fumigatus KU80 delta-akuB at 0.12 ug/ml after 48 hrs in YPD medium by microarray analysis relative to control
Aspergillus fumigatus [4] = assay: Induction of change in FKBP-type peptidyl-prolyl isomerase, putative protein level in iTRAQ-116 labelled secreted fraction of drug-susceptible Aspergillus fumigatus KU80 delta-akuB at 0.12 ug/ml after 48 hrs in YPD medium by MS (MS/MS) analysis relative to control
Aspergillus fumigatus [5] = assay: Induction of change in ribosomal protein L37 gene expression in drug-susceptible Aspergillus fumigatus KU80 delta-akuB at 0.12 ug/ml after 24 hrs in YPD medium by microarray analysis relative to control
Aspergillus fumigatus [6] = assay: Induction of change in isocitrate dehydrogenase Idp1, putative protein level in iTRAQ-116 labelled secreted fraction of drug-resistant Aspergillus fumigatus EMFR-S678P at 0.12 ug/ml after 48 hrs in YPD medium by MS (MS/MS) analysis relative to control
Aspergillus fumigatus [7] = assay: Induction of change in bifunctional catalase-peroxidase Cat2 gene expression in drug-susceptible Aspergillus fumigatus KU80 delta-akuB at 0.12 ug/ml after 48 hrs in YPD medium by microarray analysis relative to control
Aspergillus fumigatus [8] = assay: Induction of change in cell wall protein, putative protein level in iTRAQ-118 labelled cell wall fraction of drug-susceptible Aspergillus fumigatus KU80 delta-akuB at 0.12 ug/ml after 24 hrs in YPD medium by MS (MS/MS) analysis relative to control
Aspergillus fumigatus [9] = assay: Induction of change in Ribosomal protein S5 protein level in iTRAQ114 labelled cell wall fraction of drug-susceptible Aspergillus fumigatus KU80 delta-akuB at 0.12 ug/ml after 24 hrs in YPD medium by MS (MS/MS) analysis relative to control
Aspergillus fumigatus [10] = assay: Induction of change in alkaline serine protease protein level in iTRAQ114 labelled secreted fraction of drug-susceptible Aspergillus fumigatus KU80 delta-akuB at 0.12 ug/ml after 24 hrs in YPD medium by MS (MS/MS) analysis relative to control
Aspergillus fumigatus [11] = assay: Induction of change in PT repeat family protein level in iTRAQ-116 labelled secreted fraction of drug-resistant Aspergillus fumigatus EMFR-S678P at 0.12 ug/ml after 48 hrs in YPD medium by MS (MS/MS) analysis relative to control
Aspergillus fumigatus [12] = assay: Induction of change in Ribosomal L15 protein level in iTRAQ114 labelled cell wall fraction of drug-susceptible Aspergillus fumigatus KU80 delta-akuB at 0.12 ug/ml after 24 hrs in YPD medium by MS (MS/MS) analysis relative to control
Aspergillus fumigatus [13] = assay: Induction of change in C2H2 transcription factor (Rpn4), putative gene expression in drug-susceptible Aspergillus fumigatus KU80 delta-akuB at 0.12 ug/ml after 24 hrs in YPD medium by microarray analysis relative to control
Aspergillus fumigatus [14] = assay: Induction of change in citrate synthase Cit1, putative protein level in iTRAQ-116 labelled secreted fraction of drug-resistant Aspergillus fumigatus EMFR-S678P at 0.12 ug/ml after 48 hrs in YPD medium by MS (MS/MS) analysis relative to control
Aspergillus fumigatus [15] = assay: Induction of change in 40S ribosomal protein S10b protein level in iTRAQ114 labelled cell wall fraction of drug-resistant Aspergillus fumigatus EMFR-S678P at 0.12 ug/ml after 24 hrs in YPD medium by MS (MS/MS) analysis relative to control
Aspergillus fumigatus [16] = assay: Induction of change in cytochrome c protein level in iTRAQ-118 labelled cell wall fraction of drug-resistant Aspergillus fumigatus EMFR-S678P at 0.12 ug/ml after 24 hrs in YPD medium by MS (MS/MS) analysis relative to control
Aspergillus fumigatus [17] = assay: Induction of change in ribosomal protein L35, putative gene expression in drug-susceptible Aspergillus fumigatus KU80 delta-akuB at 0.12 ug/ml after 24 hrs in YPD medium by microarray analysis relative to control
Aspergillus fumigatus [18] = assay: Induction of change in conserved hypothetical locus AFUA_2G15580 gene expression in drug-susceptible Aspergillus fumigatus KU80 delta-akuB at 0.12 ug/ml after 24 hrs in YPD medium by microarray analysis relative to control
Aspergillus fumigatus [19] = assay: Induction of change in BYS1 domain protein, putative protein level in iTRAQ-116 labelled cell wall fraction of drug-resistant Aspergillus fumigatus EMFR-S678P at 0.12 ug/ml after 48 hrs in YPD medium by MS (MS/MS) analysis relative to control
Aspergillus fumigatus [20] = assay: Induction of change in Ribosomal L38e protein family gene expression in drug-susceptible Aspergillus fumigatus KU80 delta-akuB at 0.12 ug/ml after 24 hrs in YPD medium by microarray analysis relative to control
Aspergillus fumigatus [21] = assay: Induction of change in cytosolic small ribosomal subunit S15, putative gene expression in drug-susceptible Aspergillus fumigatus KU80 delta-akuB at 0.12 ug/ml after 24 hrs in YPD medium by microarray analysis relative to control
Aspergillus fumigatus [22] = assay: Induction of change in hexokinase Kxk, putative protein level in iTRAQ-116 labelled secreted fraction of drug-susceptible Aspergillus fumigatus KU80 delta-akuB at 0.12 ug/ml after 48 hrs in YPD medium by MS (MS/MS) analysis relative to control
Aspergillus fumigatus [23] = assay: Induction of change in mycelial catalase Cat1 protein level in iTRAQ114 labelled secreted fraction of drug-susceptible Aspergillus fumigatus KU80 delta-akuB at 0.12 ug/ml after 24 hrs in YPD medium by MS (MS/MS) analysis relative to control
Aspergillus fumigatus [24] = assay: Induction of change in antioxidant protein LsfA gene expression in drug-susceptible Aspergillus fumigatus KU80 delta-akuB at 0.12 ug/ml after 48 hrs in YPD medium by microarray analysis relative to control
Aspergillus fumigatus [25] = assay: Induction of change in Cytosolic large ribosomal subunit protein L7A protein level in iTRAQ114 labelled cell wall fraction of drug-resistant Aspergillus fumigatus EMFR-S678P at 0.12 ug/ml after 24 hrs in YPD medium by MS (MS/MS) analysis relative to control
Aspergillus fumigatus [26] = assay: Induction of change in ribosomal protein S14.e protein level in iTRAQ114 labelled secreted fraction of drug-susceptible Aspergillus fumigatus KU80 delta-akuB at 0.12 ug/ml after 24 hrs in YPD medium by MS (MS/MS) analysis relative to control

**Q.** Which results are given for `CC[C@H](C)C[C@H](C)CCCCCCCCC(=O)N[C@H]1C[C@@H](O)[C@@H](NCCN)NC(=O)[C@@H]2[C@@H](O)CCN2C(=O)[C@H]([C@H](O)CCN)NC(=O)[C@H]([C@H](O)[C@@H](O)c2ccc(O)cc2)NC(=O)[C@@H]2C[C@@H](O)CN2C(=O)[C@H]([C@@H](C)O)NC1=O` [CASPOFUNGIN]?
**A.** fold change (FC) (Aspergillus fumigatus [1]): 1.1; fold change (FC) (Aspergillus fumigatus [2]): 4.6; fold change (FC) (Aspergillus fumigatus [3]): -2.6; fold change (FC) (Aspergillus fumigatus [4]): -13.9; fold change (FC) (Aspergillus fumigatus [5]): 4.9; fold change (FC) (Aspergillus fumigatus [6]): -1.07; fold change (FC) (Aspergillus fumigatus [7]): -4.1; fold change (FC) (Aspergillus fumigatus [8]): -2.5; fold change (FC) (Aspergillus fumigatus [9]): 2.3; fold change (FC) (Aspergillus fumigatus [10]): 1.2; fold change (FC) (Aspergillus fumigatus [11]): -1.15; fold change (FC) (Aspergillus fumigatus [12]): 1.7; fold change (FC) (Aspergillus fumigatus [13]): -5; fold change (FC) (Aspergillus fumigatus [14]): -1.32; fold change (FC) (Aspergillus fumigatus [15]): 1.07; fold change (FC) (Aspergillus fumigatus [16]): 1.07; fold change (FC) (Aspergillus fumigatus [17]): 3.9; fold change (FC) (Aspergillus fumigatus [18]): -6.8; fold change (FC) (Aspergillus fumigatus [19]): 1.23; fold change (FC) (Aspergillus fumigatus [20]): 4.2; fold change (FC) (Aspergillus fumigatus [21]): 3.9; fold change (FC) (Aspergillus fumigatus [22]): 3.2; fold change (FC) (Aspergillus fumigatus [23]): 1.2; fold change (FC) (Aspergillus fumigatus [24]): -3; fold change (FC) (Aspergillus fumigatus [25]): 1.07; fold change (FC) (Aspergillus fumigatus [26]): 1.2
